Results reported in the supplement of paper PMC10849652.
Some of the results follow.

Amino acid sequences for entries named in this document (tags omitted). A change or cut given only in a name is not applied to a line headed by its entry.
UniProt P35222, whole entry, looked up: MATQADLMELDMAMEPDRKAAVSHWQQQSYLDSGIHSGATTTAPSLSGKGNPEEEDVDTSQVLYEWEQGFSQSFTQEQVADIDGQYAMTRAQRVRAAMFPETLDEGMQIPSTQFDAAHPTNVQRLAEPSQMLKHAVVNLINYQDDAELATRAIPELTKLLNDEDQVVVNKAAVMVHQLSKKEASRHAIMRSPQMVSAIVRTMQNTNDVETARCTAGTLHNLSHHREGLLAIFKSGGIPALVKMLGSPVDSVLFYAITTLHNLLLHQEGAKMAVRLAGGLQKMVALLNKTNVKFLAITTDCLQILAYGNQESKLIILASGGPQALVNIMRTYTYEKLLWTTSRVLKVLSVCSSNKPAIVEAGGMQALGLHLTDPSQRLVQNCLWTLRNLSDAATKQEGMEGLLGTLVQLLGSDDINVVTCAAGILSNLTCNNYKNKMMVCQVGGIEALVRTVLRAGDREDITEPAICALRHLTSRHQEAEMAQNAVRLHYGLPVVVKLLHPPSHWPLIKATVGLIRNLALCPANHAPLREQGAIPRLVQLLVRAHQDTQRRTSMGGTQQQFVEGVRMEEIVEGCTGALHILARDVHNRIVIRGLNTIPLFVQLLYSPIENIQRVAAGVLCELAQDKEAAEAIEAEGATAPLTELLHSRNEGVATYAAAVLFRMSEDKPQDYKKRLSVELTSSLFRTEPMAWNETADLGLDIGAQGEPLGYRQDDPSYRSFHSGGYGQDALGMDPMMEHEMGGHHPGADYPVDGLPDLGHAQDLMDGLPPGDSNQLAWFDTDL
UniProt Q5JQC4: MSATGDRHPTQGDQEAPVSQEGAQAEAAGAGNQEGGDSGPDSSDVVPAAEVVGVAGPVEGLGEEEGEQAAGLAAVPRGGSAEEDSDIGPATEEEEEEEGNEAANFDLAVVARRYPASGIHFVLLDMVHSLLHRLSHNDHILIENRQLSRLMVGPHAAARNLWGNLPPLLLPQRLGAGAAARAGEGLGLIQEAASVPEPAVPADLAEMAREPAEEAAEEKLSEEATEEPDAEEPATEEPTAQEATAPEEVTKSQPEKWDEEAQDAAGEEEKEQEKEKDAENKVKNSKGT
UniProt Q8NBI2: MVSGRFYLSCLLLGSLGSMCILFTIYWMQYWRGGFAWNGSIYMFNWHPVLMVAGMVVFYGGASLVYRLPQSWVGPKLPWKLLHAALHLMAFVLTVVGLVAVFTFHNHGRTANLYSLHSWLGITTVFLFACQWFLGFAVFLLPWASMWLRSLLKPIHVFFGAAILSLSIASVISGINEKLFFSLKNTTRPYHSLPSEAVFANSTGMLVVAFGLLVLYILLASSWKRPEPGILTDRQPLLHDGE
UniProt Q66K64, whole entry, looked up: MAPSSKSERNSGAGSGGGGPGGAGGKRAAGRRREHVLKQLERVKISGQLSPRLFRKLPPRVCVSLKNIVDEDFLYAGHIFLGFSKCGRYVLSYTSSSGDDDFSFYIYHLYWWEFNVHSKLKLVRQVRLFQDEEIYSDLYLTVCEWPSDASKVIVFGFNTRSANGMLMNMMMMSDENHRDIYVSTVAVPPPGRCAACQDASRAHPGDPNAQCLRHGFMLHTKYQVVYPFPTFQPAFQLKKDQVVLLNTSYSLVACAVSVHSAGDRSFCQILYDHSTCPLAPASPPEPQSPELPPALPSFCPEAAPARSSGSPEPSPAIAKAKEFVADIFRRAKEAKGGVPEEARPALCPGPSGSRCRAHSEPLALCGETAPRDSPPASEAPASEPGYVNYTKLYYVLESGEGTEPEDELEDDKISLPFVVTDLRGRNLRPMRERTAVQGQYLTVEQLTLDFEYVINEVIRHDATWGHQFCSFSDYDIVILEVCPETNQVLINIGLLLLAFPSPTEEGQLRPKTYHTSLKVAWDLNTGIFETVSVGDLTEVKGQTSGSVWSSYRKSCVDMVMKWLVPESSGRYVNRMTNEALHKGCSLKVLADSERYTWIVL
UniProt Q8NA75: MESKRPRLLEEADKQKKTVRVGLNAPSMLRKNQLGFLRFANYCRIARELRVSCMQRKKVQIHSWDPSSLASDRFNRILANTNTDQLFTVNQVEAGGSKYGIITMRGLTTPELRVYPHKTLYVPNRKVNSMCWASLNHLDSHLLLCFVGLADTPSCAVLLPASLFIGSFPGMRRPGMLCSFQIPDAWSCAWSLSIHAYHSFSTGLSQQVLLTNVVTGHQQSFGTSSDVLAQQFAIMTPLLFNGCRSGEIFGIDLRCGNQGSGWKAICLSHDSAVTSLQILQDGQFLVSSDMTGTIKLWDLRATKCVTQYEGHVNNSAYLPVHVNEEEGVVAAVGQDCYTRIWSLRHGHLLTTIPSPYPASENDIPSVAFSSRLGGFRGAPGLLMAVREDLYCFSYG
UniProt P07108: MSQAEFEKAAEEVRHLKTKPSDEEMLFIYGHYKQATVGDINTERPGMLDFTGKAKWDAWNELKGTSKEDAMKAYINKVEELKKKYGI
UniProt Q13561, whole entry, looked up: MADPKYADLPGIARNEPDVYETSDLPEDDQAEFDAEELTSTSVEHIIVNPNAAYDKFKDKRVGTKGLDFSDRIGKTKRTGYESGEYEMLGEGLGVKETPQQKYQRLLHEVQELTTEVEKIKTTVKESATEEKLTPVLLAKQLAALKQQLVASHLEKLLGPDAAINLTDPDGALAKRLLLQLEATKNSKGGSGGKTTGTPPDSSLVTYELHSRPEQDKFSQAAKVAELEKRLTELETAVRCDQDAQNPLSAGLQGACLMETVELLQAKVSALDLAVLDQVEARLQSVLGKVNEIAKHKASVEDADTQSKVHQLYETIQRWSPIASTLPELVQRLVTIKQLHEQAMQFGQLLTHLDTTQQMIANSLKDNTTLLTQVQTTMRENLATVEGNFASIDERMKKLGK
UniProt O60716: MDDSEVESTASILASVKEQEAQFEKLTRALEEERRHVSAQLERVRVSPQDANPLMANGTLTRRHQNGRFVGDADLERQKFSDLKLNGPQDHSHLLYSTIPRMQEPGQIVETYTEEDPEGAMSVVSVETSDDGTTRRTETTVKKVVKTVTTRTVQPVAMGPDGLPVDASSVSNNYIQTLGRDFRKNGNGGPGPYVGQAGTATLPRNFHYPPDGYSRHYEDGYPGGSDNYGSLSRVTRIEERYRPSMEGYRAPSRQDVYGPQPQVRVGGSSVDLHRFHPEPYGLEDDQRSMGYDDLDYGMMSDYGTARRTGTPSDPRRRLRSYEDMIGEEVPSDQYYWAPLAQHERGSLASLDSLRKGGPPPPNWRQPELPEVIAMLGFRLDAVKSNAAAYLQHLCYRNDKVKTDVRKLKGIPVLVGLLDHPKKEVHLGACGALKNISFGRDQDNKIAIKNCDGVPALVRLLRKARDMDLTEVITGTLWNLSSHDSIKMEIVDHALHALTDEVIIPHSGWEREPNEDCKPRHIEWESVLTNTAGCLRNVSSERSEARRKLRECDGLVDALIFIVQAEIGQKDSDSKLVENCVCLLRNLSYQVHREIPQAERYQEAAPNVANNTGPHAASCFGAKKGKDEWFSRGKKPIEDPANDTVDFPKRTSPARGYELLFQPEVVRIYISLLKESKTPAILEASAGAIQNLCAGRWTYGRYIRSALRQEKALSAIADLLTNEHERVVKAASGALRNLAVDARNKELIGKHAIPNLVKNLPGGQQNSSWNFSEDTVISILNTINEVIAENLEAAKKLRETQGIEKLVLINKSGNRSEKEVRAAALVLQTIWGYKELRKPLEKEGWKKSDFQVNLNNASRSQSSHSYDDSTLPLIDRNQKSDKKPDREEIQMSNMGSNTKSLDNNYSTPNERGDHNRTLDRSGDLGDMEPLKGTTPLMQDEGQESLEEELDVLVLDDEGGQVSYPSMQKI
UniProt P49447: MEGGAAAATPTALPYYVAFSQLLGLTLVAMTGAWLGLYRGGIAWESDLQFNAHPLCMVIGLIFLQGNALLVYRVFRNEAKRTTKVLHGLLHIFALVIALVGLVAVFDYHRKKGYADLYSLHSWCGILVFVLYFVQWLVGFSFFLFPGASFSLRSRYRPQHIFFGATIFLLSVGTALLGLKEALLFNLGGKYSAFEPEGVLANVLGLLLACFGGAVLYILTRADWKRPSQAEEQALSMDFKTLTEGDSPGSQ
UniProt Q58WW2: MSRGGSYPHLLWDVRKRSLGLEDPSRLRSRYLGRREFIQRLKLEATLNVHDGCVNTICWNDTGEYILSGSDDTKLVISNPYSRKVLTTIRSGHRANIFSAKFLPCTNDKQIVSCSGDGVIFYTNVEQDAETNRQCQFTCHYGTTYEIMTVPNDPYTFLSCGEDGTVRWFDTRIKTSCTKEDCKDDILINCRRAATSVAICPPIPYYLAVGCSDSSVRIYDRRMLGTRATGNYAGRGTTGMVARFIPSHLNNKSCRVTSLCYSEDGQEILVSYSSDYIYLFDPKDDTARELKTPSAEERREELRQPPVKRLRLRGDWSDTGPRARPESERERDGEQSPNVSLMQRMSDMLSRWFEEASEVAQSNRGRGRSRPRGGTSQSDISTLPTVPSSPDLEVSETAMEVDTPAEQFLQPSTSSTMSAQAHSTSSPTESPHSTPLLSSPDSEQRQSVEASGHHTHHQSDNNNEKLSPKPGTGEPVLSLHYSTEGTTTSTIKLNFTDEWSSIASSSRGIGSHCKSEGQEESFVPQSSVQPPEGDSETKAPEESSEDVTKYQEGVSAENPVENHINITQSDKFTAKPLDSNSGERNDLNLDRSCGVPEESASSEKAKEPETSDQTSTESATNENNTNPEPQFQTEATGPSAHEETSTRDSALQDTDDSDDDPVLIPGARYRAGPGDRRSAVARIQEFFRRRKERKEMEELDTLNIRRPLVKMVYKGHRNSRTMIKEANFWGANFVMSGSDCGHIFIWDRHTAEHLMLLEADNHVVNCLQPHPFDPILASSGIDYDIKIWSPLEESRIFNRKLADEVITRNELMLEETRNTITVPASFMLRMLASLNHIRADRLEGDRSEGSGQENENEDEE
UniProt Q9UER7, whole entry, looked up: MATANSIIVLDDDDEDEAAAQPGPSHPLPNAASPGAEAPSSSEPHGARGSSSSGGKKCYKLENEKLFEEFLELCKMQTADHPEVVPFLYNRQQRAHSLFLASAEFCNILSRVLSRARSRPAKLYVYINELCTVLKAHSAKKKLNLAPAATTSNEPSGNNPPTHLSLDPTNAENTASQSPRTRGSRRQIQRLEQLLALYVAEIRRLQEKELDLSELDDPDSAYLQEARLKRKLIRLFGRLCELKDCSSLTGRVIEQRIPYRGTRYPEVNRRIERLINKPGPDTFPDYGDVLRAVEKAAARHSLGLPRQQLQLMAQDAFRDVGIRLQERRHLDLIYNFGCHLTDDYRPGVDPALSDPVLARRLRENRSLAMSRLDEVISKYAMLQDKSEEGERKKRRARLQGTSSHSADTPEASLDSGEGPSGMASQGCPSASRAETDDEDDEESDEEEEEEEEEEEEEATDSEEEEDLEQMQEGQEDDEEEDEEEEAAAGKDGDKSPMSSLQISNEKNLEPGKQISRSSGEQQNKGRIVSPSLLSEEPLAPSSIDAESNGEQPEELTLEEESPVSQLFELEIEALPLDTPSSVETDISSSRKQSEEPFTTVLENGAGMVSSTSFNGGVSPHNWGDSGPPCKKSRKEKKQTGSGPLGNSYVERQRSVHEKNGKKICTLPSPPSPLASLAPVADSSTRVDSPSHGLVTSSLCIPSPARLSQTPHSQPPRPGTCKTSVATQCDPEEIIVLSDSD
UniProt P61803: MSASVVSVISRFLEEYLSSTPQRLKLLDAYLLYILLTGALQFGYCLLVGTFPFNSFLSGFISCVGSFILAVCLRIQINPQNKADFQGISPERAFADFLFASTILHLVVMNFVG
UniProt Q96EP5: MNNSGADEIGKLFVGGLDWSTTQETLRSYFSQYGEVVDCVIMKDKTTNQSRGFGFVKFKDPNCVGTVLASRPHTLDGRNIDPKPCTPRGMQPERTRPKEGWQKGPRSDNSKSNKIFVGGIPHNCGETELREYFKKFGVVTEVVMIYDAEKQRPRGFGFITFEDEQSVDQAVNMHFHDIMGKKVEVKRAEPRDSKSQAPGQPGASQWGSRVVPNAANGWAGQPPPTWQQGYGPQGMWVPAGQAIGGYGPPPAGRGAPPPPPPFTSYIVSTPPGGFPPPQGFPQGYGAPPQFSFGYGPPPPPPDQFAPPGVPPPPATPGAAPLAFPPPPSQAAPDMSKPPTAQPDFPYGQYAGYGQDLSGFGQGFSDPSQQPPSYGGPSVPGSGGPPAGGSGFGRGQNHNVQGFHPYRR
UniProt Q9UBR2: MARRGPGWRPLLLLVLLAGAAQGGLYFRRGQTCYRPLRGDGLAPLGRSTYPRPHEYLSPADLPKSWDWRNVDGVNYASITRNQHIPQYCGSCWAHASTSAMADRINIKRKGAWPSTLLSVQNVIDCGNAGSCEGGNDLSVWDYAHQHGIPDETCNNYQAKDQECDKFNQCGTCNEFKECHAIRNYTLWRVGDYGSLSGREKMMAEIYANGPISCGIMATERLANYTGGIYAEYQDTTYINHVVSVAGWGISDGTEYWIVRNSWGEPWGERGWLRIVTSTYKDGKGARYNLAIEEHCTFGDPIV

What was measured:
Assay in all cases: log2 fold change, soluble protein after heating vs DMSO (PISA); higher = thermal stabilisation; K562 cells, 10 uM, 30 min; active = over 0.2 and 3.5 SD of the protein, either way, in both replicates (recomputed)
[1] = compound: Cc1ccc(NC(=O)c2ccc(CN3CC[C@H](N(C)C)C3)c(C(F)(F)F)c2)cc1Nc1nccc(-c2cncnc2)n1 [bafetinib]
In short: (§1)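 K562 cells at 2×10^6 cells/mL were exposed to 10 μM compound for 30 min, then aliquots were heated for 3 min across 48°C-58°C, pooled, and extracted in PBS containing 0.5% NP-40 at 4°C. The supernatant after 21,000xg for 90 min was taken as soluble protein and measured by TMTpro 16plex LC-MS/MS with channel sums equalised. Thermal stability is reported relative to control samples, with values from duplicates. Fold changes are given on a log2 scale.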

[2] = compound: Cc1cccc(CC(=O)N2CCc3c2ccc(-c2cn(C)c4ncnc(N)c24)c3F)n1
In short: as §1

[3] = compound: Cc1cn(-c2cc(NC(=O)c3ccc(C)c(Nc4nccc(-c5cccnc5)n4)c3)cc(C(F)(F)F)c2)cn1 [nilotinib]
In short: as §1

[4] = compound: Cc1nc(Nc2n[nH]c3c2CN(C(=O)N[C@H](CN(C)C)c2ccccc2)C3(C)C)c2sccc2n1
In short: as §1

[5] = compound: Cc1nc(Nc2ncc(C(=O)Nc3c(C)cccc3Cl)s2)cc(N2CCN(CCO)CC2)n1 [dasatinib]
In short: as §1

[6] = compound: Cc1ncc(-c2ccnc(Nc3ccc(S(C)(=O)=O)cc3)n2)n1C(C)C
In short: as §1

[7] = compound: Cn1cc(-c2ccc3c(c2)CCN3C(=O)Cc2cccc(C(F)(F)F)c2)c2c(N)ncnc21
In short: as §1

[8] = compound: Cn1cc(-c2ccc3nnc(C(F)(F)c4ccc5ncccc5c4)n3n2)cn1
In short: as §1

[9] = compound: Cn1cncc1[C@@](N)(c1ccc(Cl)cc1)c1ccc2c(c1)c(-c1cccc(Cl)c1)cc(=O)n2C [tipifarnib]
In short: as §1

[10] = compound: FC(F)(F)c1ccc(/C=C/c2nc(COc3ccc(CCCCn4ccnn4)cc3)co2)cc1 [mubritinib]
In short: as §1

[11] = compound: NC(=O)Nc1cc(-c2cccc(F)c2)sc1C(=O)N[C@H]1CCCNC1
In short: as §1

[12] = compound: NC(=O)c1cnc(N[C@@H]2CCCC[C@@H]2N)nc1Nc1cccc(-n2nccn2)c1
In short: as §1

[13] = compound: NC1(c2ccc(-c3nc4ccn5c(=O)[nH]nc5c4cc3-c3ccccc3)cc2)CCC1
In short: as §1

[14] = compound: NCC(=O)Nc1ccc(-n2nc(C(F)(F)F)cc2-c2ccc3c(ccc4ccccc43)c2)cc1
In short: as §1

[15] = compound: Nc1ccccc1NC(=O)c1ccc(CNC(=O)OCc2cccnc2)cc1 [entinostat]
In short: as §1

[16] = compound: O=C(CCCCCCC(=O)Nc1ccccc1)NO [vorinostat]
In short: as §1

[17] = compound: O=C(CCCCCCNC(=O)c1cnc(N(c2ccccc2)c2ccccc2Cl)nc1)NO [citarinostat]
In short: as §1

[18] = compound: O=C(O)c1ccc2c(c1)nc(Nc1cccc(Cl)c1)c1ccncc12 [silmitasertib]
In short: as §1

[19] = compound: O=C1NC(=O)C(c2cnc3ccccn23)=C1c1cn2c3c(cc(F)cc13)CN(C(=O)N1CCCCC1)CC2
In short: as §1

[20] = compound: c1cc(OCCN2CCCCC2)cc(-c2n[nH]c3ccc(-c4nnc[nH]4)cc23)c1
In short: as §1

| Target | log2 fold change [1] | log2 fold change [2] | log2 fold change [3] | log2 fold change [4] | log2 fold change [5] | log2 fold change [6] | log2 fold change [7] | log2 fold change [8] | log2 fold change [9] | log2 fold change [10] | log2 fold change [11] | log2 fold change [12] | log2 fold change [13] | log2 fold change [14] | log2 fold change [15] | log2 fold change [16] | log2 fold change [17] | log2 fold change [18] | log2 fold change [19] | log2 fold change [20] |
| --- | --- | --- | --- | --- | --- | --- | --- | --- | --- | --- | --- | --- | --- | --- | --- | --- | --- | --- | --- | --- |
| CTNNB1 (UniProt P35222) | inactive: 0.026 | inactive: 0.057 | inactive: -0.056 | inactive: 0.205 | inactive: -0.149 | active: 0.858 | inactive: -0.004 | inactive: -0.021 | inactive: -0.115 | inactive: 0.076 | inactive: -0.14 | inactive: -0.06 | inactive: -0.18 | inactive: -0.2 | inactive: -0.078 | inactive: -0.001 | inactive: 0.093 | inactive: 0.03 | active: 1.3 | inactive: -0.107 |
| CUL1 (UniProt Q13616) | inactive: -0.025 | inactive: 0.005 | inactive: 0.014 | inactive: 0.01 | inactive: 0.043 | inactive: 0.006 | inactive: 0.022 | inactive: 0.007 | inactive: -0.014 | inactive: 0.032 | inactive: 0.002 | inactive: 0.011 | inactive: -0.002 | inactive: 0.036 | inactive: -0.021 | inactive: -0.004 | inactive: 0.03 | inactive: 0.015 | inactive: -0.036 | inactive: -0.016 |
| CT47A1 (UniProt Q5JQC4) | inactive: -0.153 | inactive: 0.061 | inactive: -0.01 | inactive: -0.054 | inactive: 0.011 | inactive: 0.036 | inactive: -0.048 | inactive: -0.033 | inactive: -0.071 | inactive: -0.102 | inactive: 0.041 | inactive: 0.02 | inactive: -0.037 | inactive: 0.07 | inactive: -0.024 | inactive: -0.007 | inactive: 0.041 | inactive: 0.022 | inactive: 0.02 | inactive: -0.089 |
| CYB561A3 isoform 2 (UniProt Q8NBI2) | inactive: 0.03 | inactive: -0.223 | inactive: 0.012 | inactive: 0.065 | inactive: 0.034 | inactive: -0.029 | inactive: 0.004 | inactive: -0.044 | inactive: -0.087 | inactive: -0.015 | inactive: -0.019 | inactive: -0.075 | inactive: -0.066 | – | inactive: -0.004 | inactive: -0.254 | inactive: -0.081 | inactive: 0.04 | – | inactive: 0.035 |
| DCAF15 (UniProt Q66K64) | inactive: -0.06 | – | inactive: -0.041 | inactive: 0.039 | inactive: 0.005 | inactive: 0.025 | inactive: 0.308 | inactive: 0.043 | inactive: -0.045 | inactive: 0.159 | inactive: -0.05 | inactive: -0.098 | inactive: -0.108 | inactive: -0.1 | inactive: -0.191 | – | inactive: 0.075 | inactive: -0.025 | inactive: -0.031 | inactive: 0.033 |
| CTSB (UniProt P07858) | active: -0.842 | inactive: -0.038 | inactive: 0.001 | inactive: -0.028 | inactive: -0.008 | inactive: -0.029 | inactive: 0.014 | inactive: 0.033 | inactive: 0.008 | inactive: -0.007 | inactive: -0.013 | inactive: -0.043 | active: -0.283 | inactive: 0.005 | inactive: -0.047 | inactive: 0.016 | inactive: -0.015 | inactive: 0.002 | inactive: -0.067 | inactive: -0.07 |
| DCAF4L2 (UniProt Q8NA75) | inactive: -0.059 | inactive: 0.042 | inactive: -0.001 | inactive: 0.01 | inactive: 0.018 | inactive: 0.039 | inactive: 0.009 | inactive: 0.124 | inactive: 0.014 | inactive: 0.048 | inactive: 0.019 | inactive: 0.06 | inactive: -0.114 | inactive: -0.041 | inactive: -0.067 | inactive: 0.032 | inactive: 0.209 | inactive: 0.063 | – | inactive: -0.124 |
| DBI isoform 5 (UniProt P07108) | inactive: -0.065 | inactive: -0.126 | inactive: 0.051 | inactive: -0.016 | inactive: 0.113 | inactive: 0 | inactive: 0.071 | inactive: 0.176 | inactive: 0.051 | inactive: 0.022 | inactive: -0.023 | inactive: 0.075 | inactive: 0.023 | inactive: -0.026 | inactive: 0.071 | inactive: -0.176 | inactive: -0.002 | inactive: 0.003 | inactive: -0.048 | inactive: -0.058 |
| DCTN2 isoform 2 (UniProt Q13561) | inactive: 0.017 | inactive: -0.007 | inactive: -0.012 | inactive: -0.026 | inactive: -0.089 | inactive: 0.026 | inactive: -0.012 | inactive: 0.003 | inactive: -0.066 | inactive: 0.018 | inactive: -0.011 | inactive: -0.023 | inactive: -0.047 | inactive: -0.011 | inactive: 0.06 | inactive: -0.018 | inactive: 0.043 | inactive: 0.031 | inactive: -0.011 | inactive: -0.028 |
| CTNND1 (UniProt O60716) | inactive: 0.118 | inactive: -0.076 | – | – | inactive: 0.017 | – | inactive: -0.243 | inactive: -0.038 | inactive: 0.052 | inactive: -0.203 | inactive: 0.145 | inactive: 0.032 | inactive: 0.219 | inactive: 0.155 | inactive: 0.051 | inactive: 0.061 | inactive: -0.086 | inactive: 0.072 | inactive: 0.197 | inactive: -0.061 |
| CYB561 (UniProt P49447) | inactive: 0.179 | inactive: -0.079 | inactive: 0.117 | inactive: 0.06 | inactive: 0.128 | inactive: 0.036 | inactive: 0.077 | inactive: 0.02 | inactive: 0.01 | inactive: 0.05 | – | inactive: 0.126 | inactive: 0.032 | inactive: -0.081 | – | inactive: -0.166 | inactive: 0.008 | inactive: 0.127 | – | inactive: -0.204 |
| DCAF6 isoform 3 (UniProt Q58WW2) | inactive: -0.071 | inactive: 0.009 | inactive: 0.009 | inactive: 0.02 | inactive: 0.008 | inactive: -0.013 | inactive: -0.016 | inactive: 0.031 | inactive: 0.027 | inactive: 0.017 | inactive: 0 | inactive: 0.019 | inactive: 0.026 | inactive: 0.007 | inactive: -0.005 | inactive: 0.003 | inactive: 0.021 | inactive: 0.045 | inactive: -0.009 | inactive: -0.008 |
| DAXX (UniProt Q9UER7) | inactive: -0.119 | inactive: -0.089 | inactive: 0.055 | inactive: -0.106 | inactive: -0.034 | inactive: 0 | inactive: 0.061 | inactive: -0.016 | inactive: 0.034 | – | inactive: 0.093 | inactive: -0.103 | – | inactive: -0.08 | inactive: -0.099 | inactive: 0.034 | inactive: 0.075 | – | – | inactive: -0.076 |
| DAD1 (UniProt P61803) | inactive: -0.094 | – | inactive: 0.008 | inactive: -0.156 | inactive: 0.064 | inactive: 0.073 | inactive: 0.032 | – | inactive: 0.09 | inactive: -0.231 | inactive: 0.021 | inactive: 0.016 | inactive: -0.017 | inactive: -0.036 | inactive: -0.111 | – | inactive: -0.021 | inactive: -0.122 | inactive: -0.038 | inactive: 0.175 |
| CTBP1 (UniProt Q13363) | inactive: -0.019 | inactive: 0.004 | inactive: -0.005 | inactive: 0.002 | inactive: 0.002 | inactive: -0.031 | inactive: 0.004 | inactive: 0.057 | inactive: -0.036 | inactive: 0.044 | inactive: -0.045 | inactive: 0.005 | inactive: -0.026 | inactive: 0.041 | inactive: -0.023 | inactive: 0.042 | inactive: 0.037 | inactive: -0.031 | inactive: -0.037 | inactive: -0.05 |
| DAZAP1 (UniProt Q96EP5) | inactive: -0.009 | inactive: -0.091 | inactive: 0.001 | inactive: 0.082 | inactive: 0.073 | inactive: 0.125 | inactive: -0.051 | inactive: -0.022 | inactive: 0.01 | inactive: -0.051 | inactive: 0.002 | inactive: 0.025 | inactive: 0.15 | inactive: 0.034 | inactive: -0.069 | inactive: 0.006 | inactive: -0.038 | inactive: -0.028 | inactive: 0.092 | inactive: -0.019 |
| CTSZ (UniProt Q9UBR2) | active: -1.01 | inactive: -0.027 | inactive: 0.028 | inactive: -0.146 | inactive: 0.054 | inactive: -0.022 | inactive: 0.058 | inactive: 0.022 | inactive: 0.052 | inactive: 0.033 | inactive: -0.029 | inactive: -0.005 | active: -0.511 | inactive: 0.044 | inactive: -0.023 | inactive: 0.013 | inactive: 0.019 | inactive: 0.008 | inactive: -0.047 | inactive: 0.006 |

Part of the list above, set out differently:
Target	log2 fold change [1]	log2 fold change [2]	log2 fold change [3]	log2 fold change [4]	log2 fold change [5]	log2 fold change [6]	log2 fold change [7]	log2 fold change [8]	log2 fold change [9]	log2 fold change [10]	log2 fold change [11]	log2 fold change [12]	log2 fold change [13]	log2 fold change [14]	log2 fold change [15]	log2 fold change [16]	log2 fold change [17]	log2 fold change [18]	log2 fold change [19]	log2 fold change [20]
DCAF15 (UniProt Q66K64)	inactive: -0.06	–	inactive: -0.041	inactive: 0.039	inactive: 0.005	inactive: 0.025	inactive: 0.308	inactive: 0.043	inactive: -0.045	inactive: 0.159	inactive: -0.05	inactive: -0.098	inactive: -0.108	inactive: -0.1	inactive: -0.191	–	inactive: 0.075	inactive: -0.025	inactive: -0.031	inactive: 0.033
CTSB (UniProt P07858)	active: -0.842	inactive: -0.038	inactive: 0.001	inactive: -0.028	inactive: -0.008	inactive: -0.029	inactive: 0.014	inactive: 0.033	inactive: 0.008	inactive: -0.007	inactive: -0.013	inactive: -0.043	active: -0.283	inactive: 0.005	inactive: -0.047	inactive: 0.016	inactive: -0.015	inactive: 0.002	inactive: -0.067	inactive: -0.07
